In PubChem BioAssay AID588497 (NMMLSC, 2011):
The whole screen tested about 360,000 compounds, of which about 780 (0.22%) were called active. Inconclusive results, whose numbers are uncertain, are shown with a selection of clear calls. Rule as the data show it: active = inhibition above about 35% (passing the limit was not always enough); inconclusive = no clear call, values can overlap the other calls.

System: Botulinum neurotoxin type F light chain protease (Clostridium botulinum)
Experiment: BoNT/F light chain protease inhibitors, primary screen, biochemical, flow cytometry, MLPCN library (AID 588497); also: plate controls were buffer without enzyme for full effect and enzyme alone for no effect
Details: Multiplex microsphere protease cleavage assay, at 10 µM, active compounds read high

SMILES | inhibition
CCN(CC)CCn1c2c(c(SCC(=O)Nc3ccc(C)c(F)c3)nc1=O)CCCC2 | inconclusive: 2.4%
CCOc1ccc(N(CC(=O)NCc2ccco2)S(=O)(=O)c2ccc(OC)c(OC)c2)cc1 | inactive: 5.5%
O=C1NC[C@H](CCCCN2C[C@H](Cc3ccc(O)cc3)N(CCC3CCCCC3)C(=O)C2=O)N(CCc2ccc(O)cc2)C1=O | inactive: -26%
CCOC(=O)c1sc(Nc2nc(C)cc(C)n2)nc1C | inconclusive: -143%
CCOC(=O)c1[nH]c(COC(=O)c2ccccc2NC(=O)c2ccco2)c(C(=O)OCC)c1C | inactive: -15.9%
COc1cc(C[C@H](C)[C@H](C)Cc2ccc3c(c2)OCO3)ccc1O | inactive: -4.3%
CNS(=O)(=O)/C=C/c1ccccc1 | inactive: -0.5%
CCCCc1nc2sc3c(SCC(=O)NCc4ccco4)ncnc3c2c2c1CCC2 | inconclusive: 22.8%
COCCOC(=O)c1c(NC(=O)CN2CCOCC2)sc(C(N)=O)c1C | inactive: -4.2%
CCCCc1ccc(NC(=S)N2CCN(C)CC2)cc1 | inconclusive: 67.2%
Cc1cccc(NC(=O)CCc2ccc(S(=O)(=O)NC3CCCCC3)cc2)c1 | inactive: -79.1%
COc1ccc(CCN(C)C2CCCN(S(=O)(=O)C(C)C)C2)cc1OC (stereo unspecified) | inconclusive: 2.2%
Cc1ccc(C)c(NC(=S)N(C)C)c1 | inconclusive: 19.6%
Cc1ccc2c(c1)sc1nc(=O)n(-c3ccc(Cl)cc3)c(=O)n12 | inactive: 3.1%
Cc1ccc(C(=O)NCCN2CCOCC2)cc1C | inconclusive: -20.6%
CC(C)NS(=O)(=O)c1ccc(NC(=O)C(C)OC(=O)CCC(=O)c2cccs2)cc1 (stereo unspecified) | inconclusive: -17.1%
Cc1nn(-c2ccccc2)nc1CNC(=O)c1ncoc1-c1ccccc1 | inconclusive: -9.6%
COc1cccc(CN2CCN(Cc3cc(OC)c(OC)c(OC)c3)CC2)c1OC | inconclusive: -1.4%
COc1ccc(C2NC(=O)c3ccccc3O2)cc1 (stereo unspecified) | inconclusive: -6.3%
Cc1ccccc1OCc1nnc(SCc2cc(=O)[nH]c3ccccc23)o1 | inactive: -8.2%
Cc1cccc2nc3c(nc12)-c1ccccc1C3=O | inconclusive: 51.1%
CC(=O)C1=C(C)N2CCN=C2S1 | inconclusive: -152%
CCOC(=O)C1=C(c2ccccc2)NC(=O)NC1c1cc(OCC)c(O)c([N+](=O)[O-])c1 (stereo unspecified) | inconclusive: 17.7%

SMILES | inhibition
Nc1ccc(C(=O)Nc2cccc(N)c2)cc1 | inconclusive: -19.6%
CCOC(=O)c1nc(-c2ccc(OC)c(OC)c2)no1 | inactive: -8.6%
COc1ccccc1C(=O)OC(C)CN1CCN(C)CC1 (stereo unspecified) | inconclusive: -50.6%
CCOc1ccc(C(c2nnnn2C(C)(C)C)N2CCN(C(=O)c3ccco3)CC2)cc1 (stereo unspecified) | inactive: -35.6%
CCC1CCC(N2CCN(c3cccc(OC)c3)CC2)CC1 (stereo unspecified) | inconclusive: -0.3%
CCc1cc[n+](/C(C(=S)Nc2cccc(C)c2)=C(/[O-])c2ccc(C)c([N+](=O)[O-])c2)cc1 | inactive: -22.4%
COc1ccc(C(=O)N2CCN(Cc3ccc4c(c3)OCO4)CC2)cc1OC | inconclusive: -26.5%
Cc1ccc(-n2ncc3c(=O)n(CC(=O)N(C(C)C)C(C)C)cnc32)cc1 | inconclusive: -5.8%
O=c1[nH]c(=O)n(-c2ccc(Br)cc2)c(O)c1C=NCCN1CCCCC1 | inconclusive: 23.4%
O=S(=O)(Nc1cccc(S(=O)(=O)N2CCCC2)c1)c1cccc(Br)c1 | inactive: -1.8%
O=C(N=NC(=O)c1ccc2c(O)n(CC3CCCO3)c(O)c2c1)c1cccnc1 (stereo unspecified) | inconclusive: -13.3%
Cc1ccc(C(=O)NCCn2ccc3ccccc32)cc1[N+](=O)[O-] | inactive: -3.7%
COC(=O)c1ccc(C(C2C(=O)CC(C)(C)CC2=O)C2C(=O)CC(C)(C)CC2=O)cc1 | inconclusive: -67.8%
COc1ccc(CC(=O)N2CCN(C(=O)Cc3ccc(OC)cc3)CC2)cc1 | inconclusive: -99.9%
Cc1ccc(S(=O)(=O)[N-]c2nc3ccccc3nc2-n2cc[n+](Cc3ccccc3)c2)cc1 | inconclusive: 29.4%
C=CCNC(=S)NNC(=O)c1cccn(Cc2cccc(Cl)c2)c1=O | inactive: -3.1%
COc1c(C)cc(S(=O)(=O)NCc2ccccn2)c(C)c1C | inconclusive: 6%
NC(=O)/C(=C/c1cccnc1)NC(=O)c1ccccc1 | inconclusive: -5.2%
CCN(CC)C(=O)C(C)OC(=O)COc1ccc(Cl)cc1C (stereo unspecified) | inactive: -2.3%
Cc1ccc(N(CC(=O)N2CCc3ccccc3C2)S(C)(=O)=O)cc1 | inconclusive: 41.2%
COC(=O)c1ccc(N=C(c2ccccc2)c2c(O)n(C)c(=O)n(C)c2=O)cc1 | inactive: -9.7%
O=CNCc1nc2ccccc2n1CCc1ccccc1 | inconclusive: -0.8%
CN(C)CC1CCCCC1=O (stereo unspecified) | inconclusive: 66.1%

SMILES | inhibition
COc1ccc(C(=O)C2CCN(C(=O)c3ccc(F)cc3)CC2)cc1 | inconclusive: 19.4%
CCOc1ccc(NC(=O)C(CC(=O)O)Cc2ccc(Br)cc2)cc1 (stereo unspecified) | inconclusive: 33.7%
O=C(O)C(c1ccccc1)N1C(=O)c2ccccc2C1=O (stereo unspecified) | inconclusive: -2.3%
O=C(/C=C/c1ccco1)Nc1cccnc1Cl | inconclusive: 43.1%
Cc1onc(-c2c(Cl)cccc2Cl)c1C(=O)Nc1ccc(Cl)cn1 | inconclusive: -19.1%
Cc1nnc(C)n1/N=C/c1cccnc1 | inconclusive: 20.4%
CN1CCN(C(=O)OC2CC3CC2[C@H]2CCCCN2C3=O)CC1 (stereo partly specified) | inactive: -2.7%
Brc1cc2c(cc1Br)OCCOCCOCCO2 | inconclusive: 21.9%
CC(NCc1ccccc1)c1ccccc1O (stereo unspecified) | inconclusive: 32%
O=C(CN1CCN(C(c2ccccc2)c2ccccc2)CC1)N1N=CCC1c1ccccc1 (stereo unspecified) | inconclusive: -25.3%
CSc1c(-c2ccccn2)c(N)nn1C(=O)C1CCC1 | inconclusive: 0.1%
CCC(C)n1c(O)c(C=NC(C)c2ccccc2)c(=O)[nH]c1=S (stereo unspecified) | inconclusive: 42.1%
Cc1c(/C=N/NC(=O)c2cc(C(C)(C)C)[nH]n2)c2ccccc2n1C | inconclusive: -1.4%
COCCNC(=S)N1CCC(C(=O)c2ccc(F)cc2)CC1 | inconclusive: -24.5%
Cc1ccc(NC(=O)N(Cc2cccnc2)Cc2ccco2)cc1C | inactive: -4.1%
Cc1ccc(CNC(=O)CSc2nnc(CNC(=O)c3ccccc3)o2)cc1 | inconclusive: 1.1%
NNC(=O)c1ccc(-c2ccccc2F)cc1 | inconclusive: -110%
CCOC(=O)C1=C(c2ccccc2)NC(=S)NC1c1ccc(Cl)cc1 (stereo unspecified) | inconclusive: -72.4%
O=C(CCSCCC(=O)Nc1c(F)c(F)c(F)c(F)c1F)Nc1c(F)c(F)c(F)c(F)c1F | inactive: -1.2%
CCOC1=C2CN(S(=O)(=O)c3ccc(C)cc3)[C@H](c3ccccc3)C[C@@H]2N(S(=O)(=O)c2ccccc2C)[C@H](c2ccccc2)C1 | inactive: -5.3%
CC1(C(=O)NCCOc2ccccc2Cl)CC1(Cl)Cl (stereo unspecified) | inconclusive: 21.2%
Fc1ccccc1NC(=S)N1CCOCC1 | inactive: -2.8%
CCn1c(=O)cc(OCC(=O)Nc2cc(C)ccn2)c2ccccc21 | inactive: 1%

An excerpt from above in order of number of heavy atoms, low to high:
SMILES | inhibition
Brc1cc2c(cc1Br)OCCOCCOCCO2 | inconclusive: 21.9%
CCOC(=O)C1=C(c2ccccc2)NC(=S)NC1c1ccc(Cl)cc1 (stereo unspecified) | inconclusive: -72.4%
Cc1ccc(CNC(=O)CSc2nnc(CNC(=O)c3ccccc3)o2)cc1 | inconclusive: 1.1%

Next results follow.

SMILES | inhibition
Cc1cc(=O)n2[nH]c(-c3ccccc3)cc2n1 | inconclusive: -25.9%
Cc1nc(SCc2cccc(F)c2)c2oc3ccccc3c2n1 | inconclusive: -12.4%
O=C(c1cc([N+](=O)[O-])ccc1N1CCOCC1)N1CCN(S(=O)(=O)c2cc(Cl)ccc2Cl)CC1 | inconclusive: -4.4%
COC(=O)c1c(C)oc(C)c1S(=O)(=O)NCc1ccc(Cl)cc1 | inconclusive: -8.4%
O=C(CC(=O)N/N=C/c1c(F)cccc1Cl)NCCc1ccccc1 | inconclusive: 29%
CC(=O)N1CCN2C(=O)C1CCCC(=O)c1cc(C3CCCCC3)ccc12 (stereo unspecified) | inactive: -4.7%
COc1cc(NC(=O)CCc2nnc3ccc(N4CCN(C)CC4)nn23)cc(OC)c1 | inactive: 0.4%
CC1CCC2[C@@H](C)C(=O)OC3O[C@]4(C)CCC1C32OO4 (stereo partly specified) | inconclusive: -49.3%
O=C(O)c1cc2ccc(O)cc2oc1=O | inactive: 1%
Cc1ccc(C)c(NC(=O)C(CC(=O)O)Cc2ccccc2)c1 (stereo unspecified) | inconclusive: 35.5%
CNC(=O)COC(=O)c1ccc(NS(=O)(=O)c2ccc3c(c2)OCCO3)cc1 | active: 42.6%
O=C(/C=C/NCc1cccnc1)c1ccc(Br)cc1 | inconclusive: -66.6%
COc1ccc(CCN(C)C(=O)C2CCN(Cc3ccc(C)cc3)CC2)cc1OC | inactive: -8.4%
CCN(CC)C(=O)c1ccc(CS(=O)(=O)c2ccc(Br)cc2)cc1 | inconclusive: -18.2%
O=C1NC(Cc2ccccc2)c2nc3ccccc3c(=O)n2-c2cc3ccccc3cc21 (stereo unspecified) | inactive: -3%
Cc1cccc(Oc2nc(-c3ccccn3)nc3ccccc23)c1 | inconclusive: -7%
COCC(C)OC(=O)c1c(N)n(CCCN2CCOCC2)c2nc3ccccc3nc12 (stereo unspecified) | inconclusive: 38.1%
O=[N+]([O-])c1ccc(S(=O)(=O)NCC(c2cccnc2)N2CCc3ccccc32)cc1 (stereo unspecified) | inactive: -5.9%
O=C(CN1CCCCC1)NNc1nc(-c2ccccc2)c2cc(Br)ccc2n1 | inconclusive: 22.2%
CN(C)c1ccc(/C=C2\NC(=S)N(Cc3ccccc3)C2=O)cc1 | active: 35.7%
C=CCn1c(SCc2ccc(C(=O)NCCO)cc2)nc2ccccc2c1=O | inconclusive: -22%
CCOC(=O)C1=CCC(c2ccccc2C)N(S(=O)(=O)c2ccc(C)cc2)C1 (stereo unspecified) | inactive: 3.6%

Structures shown so far containing a thiophene ring, fused or not:
SMILES | inhibition
CCCCc1nc2sc3c(SCC(=O)NCc4ccco4)ncnc3c2c2c1CCC2 | inconclusive: 22.8%
COCCOC(=O)c1c(NC(=O)CN2CCOCC2)sc(C(N)=O)c1C | inactive: -4.2%
CC(C)NS(=O)(=O)c1ccc(NC(=O)C(C)OC(=O)CCC(=O)c2cccs2)cc1 (stereo unspecified) | inconclusive: -17.1%
